# Some of the results follow. The main result of the screen is listed elsewhere. These columns were measured beside it and carry no call. Compounds called inactive in the main read-out are mostly missing here. The note in brackets gives the kind of curve behind each potency; many fits are weak.
# Test: qHTS Assay for Lipid Storage Modulators in Drosophila S3 Cells;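 for cell number change: cells counted by Cell Tracker Red CMTPX staining in the red channel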
# Conditions: BODIPY lipid droplet fluorescence, 18-24 h; for cell number change: measured here: cell count max response, cells fed with added oleic acid
# How it was run: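 Laser-scanning cytometry quantifies lipid droplet accumulation (500–530 nm total intensity; droplet/cell object ratio) in oleic acid-fed (400 uM added) Drosophila S3 cells treated with a concentration series. 20 uM Triacsin C defined 100% inhibition.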
# [1] = measured here: lipid fluorescence (Fed channel) AC50, cells fed with added oleic acid
# [2] = measured here: cell number channel AC50, cells fed with added oleic acid
SMILES,cell number change [%],AC50 [1],AC50 [2]
COc1cc(OC)cc(C(=O)Nc2ccc(-c3nc4ccccc4o3)c(O)c2)c1,-28.5,,
COC(=O)c1ccc(NC(=O)c2ccc(NC(=O)c3ccco3)cc2)cc1,-17.8,"20.6 µM [falling, single point]",
Cc1ccccc1N1CCN(C2CCCN(C(=O)c3ocnc3C)C2)CC1 (configuration not stated),-0.867,,
O=C1CC(N2CCN(c3ccccn3)CC2)C(=O)N1c1ccc(Cl)cc1 (configuration not stated),-3.64,"0.58 µM [rising, partial curve, poor fit]",
CCCCNS(=O)(=O)c1ccc2c(c1)oc(=O)n2CC(=O)OCC,-18,"3.26 µM [falling, single point]","3.26 µM [falling, single point]"
COC(=O)CCCn1nc(NC(=O)c2ccco2)cc1C,15.7,,
CCOc1cccc(N(C(=O)CNC(=O)c2ccco2)C(C(=O)NCC2CCCO2)c2ccccc2)c1 (configuration not stated),-6.41,,"4.11 µM [rising, partial curve, poor fit]"
CCc1cc2cc(C)c(C)cc2nc1SCC(=O)NNC(=O)c1ccco1,-13.5,"2.31 µM [falling, partial curve]",
CC(=O)N1CCSc2ccc(S(=O)(=O)NCCc3ccc(C)cc3)cc21,1.7,,
COc1ccc(CCn2nnnc2C(C(C)C)N2CCN(c3ncccn3)CC2)cc1OC (configuration not stated),-8.41,"0.0231 µM [rising, single point]",
Cc1ccc(S(=O)(=O)NCCC(=O)Nc2ccc(Cl)c(Cl)c2)cc1C,-43,"18.4 µM [falling, single point]","29.1 µM [falling, single point]"
CC1C(=O)Nc2ccccc2N1C(=O)C1CC1 (configuration not stated),-12.5,"23.1 µM [rising, single point]",
CCOc1ccc(Cl)cc1CNCCCSc1ncccn1,-34.4,,"8.2 µM [falling, partial curve, poor fit]"
O=C1CSC(c2ccc(F)cc2)N1c1c(F)cccc1F (configuration not stated),5.79,,
CCN1CCc2nc3sc(C(=O)Nc4cccnc4Cl)c(N)c3cc2C1,-18.3,"29.1 µM [falling, single point]",
Cn1cccc1/C=C1\SC(=S)N(Nc2ccccc2)C1=O,19.8,"0.13 µM [rising, full curve, poor fit]",
CC(=O)Nc1ccc(NC(=O)c2ccccc2CCc2ccccc2)cc1,-32.8,"29.1 µM [falling, single point]","0.731 µM [rising, single point]"
O=C(Nc1c(Cl)ccc2nsnc12)c1cccnc1,1.53,"0.0206 µM [rising, full curve, poor fit]",
O=C(NCc1ccccn1)C1CCN(Cc2cnn(-c3ccccc3)c2-n2cccc2)CC1,,"0.58 µM [rising, single point]",
COc1ccccc1Oc1ccc(S(=O)(=O)NCc2ccccn2)cc1,,,"0.461 µM [rising, partial curve, poor fit]"
O=C(c1ccccc1)N1CCN(C(=O)c2ccc([N+](=O)[O-])cc2)CC1,0.264,"1.46 µM [falling, partial curve]",

SMILES,cell number change [%],AC50 [1],AC50 [2]
CC1CCC(N2CCN(c3ncccn3)CC2)CC1 (configuration not stated),-21.9,"0.184 µM [falling, full curve, poor fit]","1.84 µM [falling, partial curve]"
O=C(CN1CCCc2ccccc21)Nc1cc(S(=O)(=O)N2CCCC2)ccc1Cl,-10.4,,
O=C(CNC(=O)c1ccco1)Nc1ccc(F)cc1,101,,
COCCC(=O)N1CCC(Oc2ccc(C(=O)NCc3ncc(C)[nH]3)cc2)CC1,3.54,"5.17 µM [rising, single point]",
CNC(=S)N/N=C1\C(=O)c2cccc3cccc1c23,-20.9,,
O=S(=O)(NCCSc1ccccc1)c1cccs1,-131,"16.4 µM [falling, partial curve]","25.9 µM [falling, partial curve, poor fit]"
CC(=O)/C=C1/C(=O)Nc2ccccc21,-20.7,,
CCSc1ccccc1C(=O)NCc1ccc(OC)cc1,3.41,"0.58 µM [rising, single point]",
O=C(Nn1cnnc1)c1csc2ccccc12,-3.04,"0.58 µM [falling, full curve, poor fit]",
CCOC(=O)N1CCN(C(=O)C(=O)NNC(=O)COc2ccc(Cl)c(C)c2)CC1,1.14,,
N#CC1=C(N)N(c2ccccc2)C(c2ccco2)C1(C#N)C#N (configuration not stated),142,"6.51 µM [rising, single point]","13 µM [rising, partial curve]"
COc1ccc(C2=Nn3c(nnc3-c3ccco3)SC2)cc1OC,-23.2,"14.6 µM [falling, partial curve]",
Cc1ccc(C(=O)CSC2=C(C#N)C(c3ccco3)C3=C(CC(C)(C)CC3=O)N2)cc1 (configuration not stated),-41.1,"16.4 µM [falling, partial curve, poor fit]","25.9 µM [falling, partial curve, poor fit]"
COc1ccc(C2=NN(c3nc4ccccc4s3)C(=O)C2)cc1,-0.691,,
O=C(CSc1nc2ccsc2c(=O)n1-c1ccccc1)N1CCCC1,64.2,,"10.3 µM [rising, partial curve, poor fit]"
Cc1c(Cl)cccc1NC(=O)CC(C(=O)O)C1CCCO1 (configuration not stated),1.39,"0.184 µM [rising, full curve, poor fit]",
CCN(CC1COc2ccccc2O1)C(=S)Nc1ccc(F)cc1 (configuration not stated),-66.7,"0.0651 µM [rising, full curve]","0.164 µM [falling, partial curve, poor fit]"
COc1ccccc1NC(=O)c1oc2ccc(C)cc2c1C,18,,"6.51 µM [rising, single point]"
COc1ccccc1N(CC(=O)Nc1ccc(F)c(F)c1)S(C)(=O)=O,-71,,"32.6 µM [falling, partial curve, poor fit]"
O=C(N/N=C/c1ccccc1C(=O)O)c1ccc(COc2cccc3cccnc23)cc1,32.3,,"9.2 µM [rising, partial curve]"
CC1=CSC2=NC(=O)/C(=C\c3cccn3-c3ccccc3)C(=N)N12,2.66,"1.46 µM [rising, partial curve, poor fit]",

# Shown with tabs: part of the list above
SMILES	cell number change [%]	AC50 [1]	AC50 [2]
O=C(CNC(=O)c1ccco1)Nc1ccc(F)cc1	101		
COCCC(=O)N1CCC(Oc2ccc(C(=O)NCc3ncc(C)[nH]3)cc2)CC1	3.54	5.17 µM [rising, single point]	
CNC(=S)N/N=C1\C(=O)c2cccc3cccc1c23	-20.9		
O=S(=O)(NCCSc1ccccc1)c1cccs1	-131	16.4 µM [falling, partial curve]	25.9 µM [falling, partial curve, poor fit]
CC(=O)/C=C1/C(=O)Nc2ccccc21	-20.7		
CCSc1ccccc1C(=O)NCc1ccc(OC)cc1	3.41	0.58 µM [rising, single point]	
O=C(Nn1cnnc1)c1csc2ccccc12	-3.04	0.58 µM [falling, full curve, poor fit]	
CCOC(=O)N1CCN(C(=O)C(=O)NNC(=O)COc2ccc(Cl)c(C)c2)CC1	1.14		
N#CC1=C(N)N(c2ccccc2)C(c2ccco2)C1(C#N)C#N (configuration not stated)	142	6.51 µM [rising, single point]	13 µM [rising, partial curve]
Cc1ccc(C(=O)CSC2=C(C#N)C(c3ccco3)C3=C(CC(C)(C)CC3=O)N2)cc1 (configuration not stated)	-41.1	16.4 µM [falling, partial curve, poor fit]	25.9 µM [falling, partial curve, poor fit]
O=C(CSc1nc2ccsc2c(=O)n1-c1ccccc1)N1CCCC1	64.2		10.3 µM [rising, partial curve, poor fit]
Cc1c(Cl)cccc1NC(=O)CC(C(=O)O)C1CCCO1 (configuration not stated)	1.39	0.184 µM [rising, full curve, poor fit]	
CCN(CC1COc2ccccc2O1)C(=S)Nc1ccc(F)cc1 (configuration not stated)	-66.7	0.0651 µM [rising, full curve]	0.164 µM [falling, partial curve, poor fit]
COc1ccccc1N(CC(=O)Nc1ccc(F)c(F)c1)S(C)(=O)=O	-71		32.6 µM [falling, partial curve, poor fit]
O=C(N/N=C/c1ccccc1C(=O)O)c1ccc(COc2cccc3cccnc23)cc1	32.3		9.2 µM [rising, partial curve]
CC1=CSC2=NC(=O)/C(=C\c3cccn3-c3ccccc3)C(=N)N12	2.66	1.46 µM [rising, partial curve, poor fit]	

# Remaining list, next part.

SMILES,cell number change [%],AC50 [1],AC50 [2]
O=C(CSc1nc(-c2ccccc2)nc2c1Cc1ccccc1O2)Nc1ccccc1,16.3,"0.0058 µM [rising, full curve, poor fit]",
CC1CCN(S(=O)(=O)c2ccc3c(c2)c(=O)c(C(=O)NCc2ccccc2Cl)cn3C)CC1,3.43,"14.6 µM [rising, partial curve, poor fit]",
CC(=O)N1c2ccc(S(=O)(=O)NCCC(=O)NC3CCC(C)CC3)cc2CC1C (configuration not stated),21.2,"3.66 µM [falling, single point]",
O=C1CCC(=O)N1CN(C(=O)c1ccco1)c1ccccc1,0.935,"2.91 µM [falling, full curve, poor fit]",
CCc1ccc(N2CC(C(=O)Nc3ccccc3F)CC2=O)cc1 (configuration not stated),,"29.1 µM [rising, single point]",
Cc1cccc(S(=O)(=O)Nc2cccc(-c3cn4ccsc4n3)c2)c1,-22.5,"18.4 µM [falling, partial curve, poor fit]",
Clc1cccc(Cn2ncc3ccccc32)c1,17.7,,"0.58 µM [falling, single point]"
O=C(COC(=O)c1ccc(O)cc1)Nc1nccs1,16.2,,"2.91 µM [falling, partial curve, poor fit]"
Cc1ccccc1NS(=O)(=O)c1ccc(C(=O)NCC(c2ccco2)N2CCCCC2)cc1 (configuration not stated),,"29.1 µM [rising, single point]",
Fc1ccc(/C=N/NC(=S)NCCc2ccccc2)cc1F,-5.22,"6.51 µM [falling, single point]",
COC(=O)c1ccc(CNC(=O)c2ccc3c(c2)S(=O)(=O)N=C2CCCCCN23)cc1,-3.68,,"0.517 µM [rising, single point]"
CC(C)NC(=O)COc1coc(CN2CCN(Cc3ccccc3)CC2)cc1=O,4.25,,
O=C(Nc1ccc2c(c1)CCC2)c1ncoc1-c1ccccc1F,24.2,"29.1 µM [rising, single point]",
COc1ccc(NC(=O)CSc2nnc(-c3ccc(F)cc3)o2)cn1,-0.614,"0.116 µM [falling, full curve, poor fit]","0.146 µM [falling, full curve, poor fit]"
Cc1cc(=O)[nH]c(/N=C(\N)Nc2cccc3ccccc23)n1,-12,"7.31 µM [rising, partial curve]",
Cc1ccsc1/C=N/NC(=O)c1cccc(S(=O)(=O)Nc2ccccc2Cl)c1,5.61,"0.13 µM [rising, full curve, poor fit]",
Cc1ccccc1NC(=O)C(C)N1C(=O)c2ccccc2C1=O (configuration not stated),2.55,"2.91 µM [rising, single point]",
CC(=O)c1cccc(NC(=O)CCNC(=O)c2cccc(C)c2)c1,25.2,,
COc1ccc(NC(=O)C2CCCN(CCCc3ccccc3)C2)cc1OCC(C)C (configuration not stated),-39.9,,"16.4 µM [falling, single point]"
NC(=O)C1CC(=O)N(c2ccc(OCC(=O)Nc3ccc(Cl)cc3)cc2)C1 (configuration not stated),-11.5,"29.1 µM [falling, single point]",
CC(C(=O)Nc1ccc(Cl)cc1Cl)N1C(=O)NC2(CCCC2)C1=O (configuration not stated),-0.833,,
